From paper PMC4911038
Results are given in words; binding and its absence hold for the method and conditions named. For part of these data: A result given as binding can be weak or reduced; the word gives no strength. Blank lines part the entries; values can stand above or below the molecule they belong to.

Experiments:
[1] = target: T1, SmATG12 (Sordaria macrospora autophagy-associated ubiquitin-like protein ATG12) (Sordaria macrospora) (UniProt F7W503); experiment: condition: only SmATG7 as GAL4-AD fusion (prey) with SmATG12 as GAL4-BD fusion (bait); two-hybrid; GAL4 system: BD baits (pGBKT7 derivatives) in strain Y187 mated with AD preys (pGADT7 derivatives) in strain AH109, or both plasmids co-transformed into AH109; interaction read as growth on SD -Trp -Leu -His/-Ade; serial dilutions; 30°C, 3-5 days
T1 sequence: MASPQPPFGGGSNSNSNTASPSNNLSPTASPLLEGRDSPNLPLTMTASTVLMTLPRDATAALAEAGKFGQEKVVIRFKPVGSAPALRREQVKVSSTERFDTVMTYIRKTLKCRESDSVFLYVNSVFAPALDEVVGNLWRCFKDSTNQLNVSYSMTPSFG

[2] = target: T1, SmATG12 (Sordaria macrospora autophagy-associated ubiquitin-like protein ATG12) (Sordaria macrospora); experiment: two-hybrid; GAL4 system: BD baits (pGBKT7 derivatives) in strain Y187 mated with AD preys (pGADT7 derivatives) in strain AH109, or both plasmids co-transformed into AH109; interaction read as growth on SD -Trp -Leu -His/-Ade; serial dilutions; 30°C, 3-5 days
[3] = target: SmATG7 (Sordaria macrospora E1-like enzyme ATG7) (Sordaria macrospora); experiment: as above

binding [1]: no binding
Molecule: SmATG7 (Sordaria macrospora E1-like enzyme ATG7)

binding [2]: no binding
Molecule: SmATG8 (Sordaria macrospora ubiquitin-like protein ATG8)

binding [3]: binds
B1: SmATG12 (Sordaria macrospora autophagy-associated ubiquitin-like protein ATG12) (protein, UniProt F7W503 1-159)
chain: T1 sequence
